Screen size: about 52,000 sequences; about 210 (0.4%) were called active.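 How the source made its calls: active means gene whose silencing raises cell survival under the drug, median off-target-corrected z-score across its silencing RNAs 2 or more; inactive means the rest.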 The list shows a part of the results.

This experiment can be described thus: Resistance to Poly (ADP-Ribose) Polymerase inhibitor: Gene Identification via Genome-wide siRNA Screen. The note with it: mouse BRCA2 R2336H ES cells, olaparib, CellTiter-Glo viability; hits give high values. The procedure, abridged: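 Mouse BRCA2 R2336H ES cells were reverse-transfected with siRNA (20 nM final), treated at 48 h with 500 nM olaparib, and read by CellTiter-Glo after 72 h. Scores: MAD-based z per siRNA, median per gene, seed off-target correction.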
Turning to GCCCAUGUUUUUUUUUCUGTT against Olfr648, the z-score is inactive: 0.0866.

Regarding GGACUCAAAUGUGAUGCAUTT against Prkcq, the z-score was inactive: -0.934.

On to GGAGAUUCUUCUCAUUGGCTT against Gmppa, for which the z-score was inactive: -1.07.

Turning to GCCUCAGGAAGCAGAAUGATT against Kb40, the z-score is inactive: 0.00438.

GGAAGAACACAAGUGUUUUTT against Trem3: the z-score was inactive: 0.216.

Take CCCAAGAAACUUCGCUUCCTT against Ehmt1: the z-score is inactive: -0.347.

As to CCAGAAUGAUUAAUAACGGTT against AU022521, the z-score is inactive: 1.08.

As for GGCCUAAAGGCACAAUCUGTT against Nanos1, the z-score is inactive: 0.678.

On to GGAAAAAAAUUCUGAGUUCTT against Rab6, for which the z-score was inactive: 0.677.

For CGAUGGACUUUUCGUUAACTT against Jun, the z-score was inactive: -0.308.

As to GGAGCUCAAGAGCUGGGUUTT against Tor2a, the z-score was inactive: -1.84.

For the sequence GGACGUGAACAAAAGAAGGTT against Scel, the z-score was inactive: -0.354.

Take GGUGGUGAUAAGCUUCCUCTT against Olfr1417: the z-score was inactive: -0.365.

GGCCUUUGAACACACUCCATT against G6pc2: the z-score was inactive: 0.0119.

As to CCUUCAUGCAACAGCUACUTT against LOC380969, the z-score was inactive: -2.08.

For the sequence GCUCUAGGCAGAGCUAAGATT against Gsh1, the z-score is inactive: 1.76.

With “CCUGUGUUUCAGUUUGGUATT against C130052I12Rik”, the z-score was inactive: 0.515.

As to “GGCCAUCAUUUUCACAACUTT against C330018K18Rik”, the z-score was inactive: 0.952.

Turning to GGUUUGAAUCAAAUUGUACTT against Hyou1, the z-score was inactive: 0.498.

As for GGAUGCUACAACACUCUACTT against Flrt3, the z-score was inactive: 0.228.

Turning to GCAAAGGUCAGGACUAUUUTT against Gpr103, the z-score is inactive: -0.779.

For GCUUAUUUCAAAAAGGGAGTT against Mal2, the z-score is inactive: 0.902.

Regarding GCAUAGUCCUGUGCUUACCTT against Sfmbt2, the z-score was inactive: -0.472.

GCAAUUCAGGUUUACUACATT against Fgg: the z-score was inactive: -0.286.

In the case of “GGAGUAUGGUAUCAACCCGTT against 1700012G19Rik”, the z-score was inactive: 1.16.

For the sequence GCGGGACUGGAUAAUAAACTT against Orc2l, the z-score is inactive: -0.795.

As to GGAGUUUCACUACAGCCGGTT against Cdx1, the z-score was inactive: -0.109.

In the case of “CCUGUUAGGAAAGAAUCUUTT against 3110050K21Rik”, the z-score was inactive: 1.67.

As to “GGCCUUCAAAGCAAUAGGATT against 2700075B01Rik”, the z-score was inactive: -0.359.

(Values after PubChem BioAssay AID1347423 (Functional Genomics Laboratory (NCATS/FGL), 2020).)
